Source: patent publication US9370587B2, “Coloring substance for diagnostic ophtalmologic use” (IROS R.C. S.r.l., priority 2012, dated 2016)

Assay: Quality of semicircles displayed with Goldmann tonometer
Type: in vivo, human
Source text: Preferably, an aqueous solution of the substance according to the present invention with a concentration of at least 0.01% will be used, in order to have semicircles with a minimum thickness that allows easy viewing.

Cc1cc2nc3c(=O)[nH]c(=O)nc-3n(C[C@H](O)[C@H](O)[C@H](O)CO)c2cc1C [riboflavin]
appearance of semicircles (Goldmann tonometer, riboflavin instead of fluorescein): surprisingly regular circular semicircles, with edges of constant thickness and substantially free of smears
appearance of semicircles (high concentration aqueous solution of riboflavin (0.5%)): relatively thick but well-defined semicircles
